# According to PubChem BioAssay AID2417 (National Center for Advancing Translational Sciences (NCATS), 2010):
# In all, about 140,000 compounds went through this assay and about 4,300 (3.1%) were called active. Inconclusive results, whose numbers are uncertain, are shown with a selection of clear calls.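 The calls were made as follows: active = readout at or below -70, meaning at least 70% loss of cells showing the perinucleolar compartment, a nuclear body marking cancer cells; inconclusive = readout between -30 and a set limit; inactive = the rest.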
# Assay: High Content Assay for Compounds that inhibit the Assembly of the Perinucleolar Compartment;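 also: plate controls were DMSO wells for no effect and camptothecin positive control wells for full effect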
# Conditions: PC3M PTB-GFP, PNC prevalence imaging, 16 h; at 10 µM; active compounds read low
# In short: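 Compounds are pinned in duplicate onto adhered PC3M cells stably expressing GFP-tagged PTB and incubated 16 h at 37 C. Cells are then fixed, nuclei stained with Hoechst, and PNC-positive cells counted.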
row,SMILES,"activity change (PNC), negative = inhibition"
1,O=C(CSc1nccn1-c1ccccc1)c1ccc(Cl)cc1,active: -100%
2,CCOC(=O)C1=C(C)NC(C)=C(C(=O)OCC)C1c1ccccn1,inconclusive: -51.9%
3,COc1cc2c(=O)n(-c3ccc(C)cc3)c(=O)n(CC(=O)c3ccc4c(c3)OCO4)c2cc1OC,inconclusive: -40.7%
4,CC(OC(=O)CNS(=O)(=O)/C=C/c1ccccc1)C(=O)Nc1ccc(S(=O)(=O)N2CCCC2)cc1 (configuration not stated),inactive: 64.4%
5,COc1ccc(S(=O)(=O)N(CC(=O)N2CCN(c3ccccc3)CC2)c2ccccc2)cc1,active: -112%
6,CCOC(=O)c1c(N)nn(C(=O)C(C)C)c1-c1ccccc1,inactive: -17.1%
7,COc1ccc(CNC(=O)CSCc2cnn(-c3ccccc3)c2-n2cccc2)cc1,inactive: 15.7%
8,Cc1cccc(OCC(=O)N/N=C\c2cc3c(cc2[N+](=O)[O-])OCO3)c1C,inactive: 50.1%
9,Cc1cc(NC(=O)Cn2c(C)nc3ccccc3c2=O)ccc1Br,inconclusive: -77.5%
10,Cc1cc(C)cc(N(CC(=O)NCC2CCCO2)C(=O)CCC(=O)Nc2cc(C)on2)c1 (configuration not stated),active: -82.1%
11,CCn1cnc2c(cnn2-c2ccccc2)c1=O,inconclusive: -49.7%
12,COc1ccc2c(C=O)c[nH]c2c1,inconclusive: -64.6%
13,COc1ccc2c(C(=O)CN3CCN(c4ccccc4)CC3)c[nH]c2c1,inactive: -21.7%
14,CSc1nc(C)c2c(c1C#N)CCCC2,inconclusive: -45.2%
15,CC1CCC(NC(=O)Nc2cccs2)CC1 (configuration not stated),inactive: 38.9%
16,CC1CCN(C(=O)Nc2ccc3nsnc3c2)CC1,inconclusive: -40.9%
17,Cc1cc(C)c2c(=O)[nH]n(C3CC(C)N(C)CC3C)c2n1 (configuration not stated),inconclusive: -39.3%
18,Cc1ccc(S(=O)(=O)N2CCCC(C(=O)Nc3cccnc3)C2)cc1 (configuration not stated),inactive: -14.5%
19,COC(=O)c1ccc(NCCc2csc(-c3ccc(C)cc3)n2)c([N+](=O)[O-])c1,inactive: 21.9%

# As a short view, part of the list above:
row,SMILES,"activity change (PNC), negative = inhibition"
13,COc1ccc2c(C(=O)CN3CCN(c4ccccc4)CC3)c[nH]c2c1,inactive: -21.7%
14,CSc1nc(C)c2c(c1C#N)CCCC2,inconclusive: -45.2%

# Going on with the list:

row,SMILES,"activity change (PNC), negative = inhibition"
1,CCOc1ccc(-n2c(SCC(=O)Nc3ccc4c(c3)OCO4)nc3ccccc3c2=O)cc1,inconclusive: -32.5%
2,Cc1ccc(-n2c(SCC(=O)N3CCCC3)nc3c(c2=O)SCC3)cc1,inconclusive: -47.4%
3,O=C(/C=C/c1ccc(Br)o1)OCc1ccccc1,inactive: -0.152%
4,CCCNS(=O)(=O)c1ccc(CCC(=O)N2CCCCC2)cc1,inconclusive: -74.7%
5,COc1cc(C2NC(=O)NC(c3ccccc3)=C2C(C)=O)ccc1OCC(=O)O (configuration not stated),inactive: 57%
6,CC(=O)c1ccccc1NC(=O)COC(=O)c1ccccc1NC(=O)c1ccccc1,inconclusive: -48.7%
7,Cn1cc(-c2nnnn2-c2ccc(Cl)cc2)c(=O)c2ccccc21,inconclusive: -35.6%
8,Cc1ccc(/C=N/NC(=O)CSc2nc3ccccc3c(=O)n2-c2ccccc2)s1,inconclusive: -31.6%
9,Cc1ccc(-c2[nH]nc3c2C(c2ccc(OC(=O)N4CCOCC4)cc2)C(C#N)=C(N)O3)cc1 (configuration not stated),inconclusive: -69.5%
10,COc1ccc(OC)c(Nc2ccc(Nc3cc(OC)ccc3OC)nn2)c1,inactive: 22.7%
11,COc1ccc(C(=O)Nc2ccccc2C(=O)NC(C(=O)NCc2ccco2)C(C)C)cc1 (configuration not stated),inactive: -19.6%
12,O=C(NCCCn1ccnc1)Nc1cccc2ccccc12,active: -100%
13,COC(=O)c1cccc(NC(=O)CSc2nnnn2C)c1,inactive: 26%
14,N#CC(C(=O)NC1CC1)c1nc2ccccc2nc1N1CCCC1 (configuration not stated),inconclusive: -49.9%
15,CN(C(=O)COC(=O)c1ccc(Cl)cc1N)C1CCS(=O)(=O)C1 (configuration not stated),inconclusive: -45.1%
16,CCCCn1cnc(C(=O)OCC)c1N,inactive: 9.78%
17,CCn1c(COc2ccccc2)nnc1SCC(=O)c1cccc([N+](=O)[O-])c1,inconclusive: -32.1%
18,CCCc1nc2sc3c(=O)n(N)cnc3c2c2c1COC(C)(C)C2,inconclusive: -42%
19,O=C(Cc1ccc(Cl)cc1)Nc1ccc(N2CCN(C(=O)c3ccco3)CC2)c(Cl)c1,inactive: -1.47%

row,SMILES,"activity change (PNC), negative = inhibition"
1,CCCc1nc2oc3c(OC)ncnc3c2c2c1COC(C)(C)C2,inactive: -29.1%
2,CCN(C(=O)/C=C/c1ccc2c(c1)OCO2)c1ccccc1,active: -83.6%
3,Cc1ccc(C(=O)ONc2ccc(N=O)cc2)cc1,active: -117%
4,CC(=O)C1=C(C)N(Cc2ccccc2)C(=O)N[C@@H]1c1cccc(C(F)(F)F)c1,inconclusive: -78.5%
5,Cn1c(N)c(C(=O)COC(=O)c2cc(C3CC3)nc3ccccc23)c(=O)n(C)c1=O,inactive: 51.2%
6,CCOC(=O)N1CCN(C(=O)CCCn2c(=O)[nH]c3ccccc3c2=O)CC1,inconclusive: -45.4%
7,CCOc1ccc(OCC(=O)N2CCOCC2)cc1,inconclusive: -67.3%
8,c1ccc(C[n+]2cccc3c4ccccc4ccc32)cc1,inactive: 30.3%
9,COc1ccc(OC)c(S(=O)(=O)n2ccnc2C)c1,inconclusive: -66.2%
10,CC(C)(CNC(=S)NCCc1ccccc1)CNC(=S)NCCc1ccccc1,inactive: 3.82%
11,CC1CN(C(=O)CSc2nnc(-c3ccc(Cl)cc3)n2C)CC(C)O1 (configuration not stated),inconclusive: -37.9%
12,COCCNC(=O)C(c1ccc(C)o1)N(Cc1cccs1)C(=O)c1snc(C(N)=O)c1N (configuration not stated),inconclusive: -77.2%
13,Cc1ccc(-n2nc(C)c(NS(=O)(=O)c3ccccc3)c2C)cc1C,inconclusive: -34.9%
14,Cc1ccc(NC(=O)N2N=C(c3ccc(F)cc3)CC2c2ccc(F)cc2)cc1 (configuration not stated),inconclusive: -58.7%
15,CCOc1cc(CNc2ccc(CNc3ncn[nH]3)cc2)ccc1OCc1ccccc1,inconclusive: -41.6%
16,CCn1c(=O)c(-[n+]2ccccc2)c(O)c2ccccc21,inactive: -3.06%
17,CC(C)n1nnnc1C(c1ccc(F)cc1)N1CCN(C2CCCC2)CC1 (configuration not stated),inconclusive: -31.9%
18,CCN1CC2([N+](=O)[O-])CC=C(OC)C([N+](=O)[O-])(C1)C2 (configuration not stated),inactive: 1.8%
19,Cc1cc(C)c2c(c1)-c1c(ssc1=S)C(C)(C)N2C(=O)CSc1nncn1C,inconclusive: -35.1%
